Data as given in PubChem BioAssay AID1159578 (Peter MacCallum Cancer Centre, 2015).
The deposit covers about 18,000 reagents; below is a random part of them. Over the whole deposit, about 1,030 (5.7%) are marked active. 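Inactive calls also include pools with fewer than 3300 nuclei, whose migration was not assessed.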 Raw values are not corrected between plates. Unmarked entries are inactive. Further read-outs or replicates are left out here.

Assay: 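Knock-downs that alter how fast lymphatic endothelial cells migrate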 (primary screen)
System: human lymphatic endothelial cells
Reagents: siRNA pool against human genes, 40 nM
Duration: 48 h after transfection
Measured: 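High-content imaging of dye-stained cells in a scratch assay measures filled wound area and nuclei per well; duplicate means given as ratio to mock and robust z-score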
Direction: migration robust z-score: higher = faster migration into the scratch; nuclei per well: higher = more cells in the well
Call rule: 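Pools averaging fewer than 3300 nuclei are never called; remaining pools count as changed when migration robust z lies outside -2 to 2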
Calls: active = migration changed; inactive = no migration change, or too few cells

FRY | migration robust z-score = -0.25; nuclei per well, duplicate mean = 6226
RECQL4 | migration robust z-score = -0.31; nuclei per well, duplicate mean = 5434
CLIC3 | migration robust z-score = -0.36; nuclei per well, duplicate mean = 4467
DND1 | migration robust z-score = -1.96; nuclei per well, duplicate mean = 5466
DAPK2 | migration robust z-score = 0.21; nuclei per well, duplicate mean = 4774
WAC | migration robust z-score = 1.34; nuclei per well, duplicate mean = 6622
PKP2 | migration robust z-score = 1.31; nuclei per well, duplicate mean = 6636
LRRC43 | migration robust z-score = 0.18; nuclei per well, duplicate mean = 6508
SPPL2A | migration robust z-score = 0.36; nuclei per well, duplicate mean = 5479
DGKE | migration robust z-score = -2.34 (active); nuclei per well, duplicate mean = 4382
SCN1A | migration robust z-score = -0.5; nuclei per well, duplicate mean = 5113
E2F2 | migration robust z-score = 1.87; nuclei per well, duplicate mean = 5554

Entries listed so far whose target name starts with D or d:
DND1 | migration robust z-score = -1.96; nuclei per well, duplicate mean = 5466
DAPK2 | migration robust z-score = 0.21; nuclei per well, duplicate mean = 4774
DGKE | migration robust z-score = -2.34 (active); nuclei per well, duplicate mean = 4382
